Experimental data published in patent US20240252463A1, “METHODS OF TREATING FIBROTIC PATHOLOGIES” (Mayo Foundation for Medical Education and Research, priority 2018, published 2024).

Assays:
YAP/TAZ = YAP/TAZ nuclear localization (immunofluorescence, automated imaging) in IPF patient-derived lung fibroblasts; type: cell-based, human; conditions: 10 μM, treated 2 hours prior to fixation
Procedure: FIGS. 27A, 27C, 27E Dopamine Receptor D1 agonism blocks YAP/TAZ nuclear localization. 27A. D1 receptor selective agonists inhibit YAP/TAZ nuclear localization. IPF patient-derived lung fibroblasts cells treated 2 hours prior to fixation with diverse dopaminergic agonists (10 μM). N=4 different patient samples. % nuclear localization of YAP/TAZ was determined using automated imaging software. Scale bar represents 100 μm. 27C. cAMP measured in IPF patient-derived fibroblasts treated for 20 minutes with DHX. N=3. 27E. […] N=3 (****p<0.0001 vs. 0.1% DMSO vehicle control).
(§1) ImmunofluorescenceMicroscopy: Cells were plated into 96 well plates (Corning 3603) in their specific growth media and allowed to attach (8 hours). Media was then exchanged for the indicated conditions for each experiment. Cells were fixed in 3.7% formalin (Sigma-Aldrich), permeabilized in 0.25% Triton X-100 (Sigma-Aldrich) and then blocked with 1% BSA for 1 h. Cells or tissue sections were incubated overnight with mouse monoclonal antibody against αSMA (Sigma-Aldrich F3777), and/or a rabbit monoclonal antibody against YAP/TAZ (Cell Signaling D24E4) diluted 1:200 in PBS with 1% BSA. Cells were then washed and exposed to flourescence-conjugated secondary antibodies (Invitrogen) diluted 1:1000 and DAPI (Thermo Fisher Scientific). Images were taken with a Cytation5 (BioTek) microscope. For scoring αSMA positive cells (FIG. 3b), an observer blinded to the treatment conditions counted αSMA-positive cells using a visual threshold for bright fibrous staining; a minimum of 200 cells was counted for each condition. YAP/TAZ localization was quantified (FIG. 2, 6, 8) using Gen5 (Biotek) software. Images were taken at 4× magnification of both DAPI and YAP/TAZ staining. Objects were identified using the DAPI channel and a subpopulation of YAP/TAZ nuclear positive cells was counted based on nuclei where the average pixel intensity of the YAP/TAZ channel was greater than 85% of the average pixel intensity of all the nuclei in the control treated cells. Quantification of double positive (YAP/TAZ and αSMA) cells from lung tissue sections (FIG. 4d) was performed similarly; however separate thresholds were established for both YAP/TAZ and αSMA. A minimum of 4000 cells was quantified for each mouse.

αSMA = αSMA intensity (fibroblast activation) in IPF patient-derived lung fibroblasts + TGFβ; type: cell-based, human; conditions: 1 μM + TGFβ, treated for 72 hours
Procedure: FIGS. 28A-28E DHX reverses fibroblast matrix deposition, contraction and stiffening. 28A. […] N=3 (****p<0.0001, ***p<0.001, **p<0.01 vs. 0.1% DMSO vehicle control) 28D. DHX and YAP/TAZ siRNA modulate matrix crosslinking and degradation gene programs. IPF fibroblasts treated 24 hours with 2 ng/mL TGFβ+/−10 μM DHX or YAP and TAZ siRNA (>90% knockdown). N=3. Heat map indicates % change relative to unstimulated controls. 28E. DHX reverses extracellular matrix stiffening. IPF patient derived fibroblasts and their cell-derived matrices were characterized by AFM microindentation using a spherical tip after 72 hours, then treated +/−10 μM DHX in matrix deposition media for additional 72 hours and re-characterized. N=5 different patient samples. (*p<0.05 vs. 0.1% DMSO vehicle control).
as §1

SMILES: CCCN1CCC[C@@H]2Cc3n[nH]cc3C[C@H]21.Cl [(−)-Quinpirole•HCl, (−)-Quinpirole]
- Nuclear localization (% of total cells) IPF-1 (YAP/TAZ; patient sample IPF-1): 80.12 % of total cells
- Nuclear localization (% of total cells) IPF-2 (YAP/TAZ; patient sample IPF-2): 73.15 % of total cells
- Nuclear localization (% of total cells) IPF-3 (YAP/TAZ; patient sample IPF-3): 80.54 % of total cells
- Nuclear localization (% of total cells) IPF-4 (YAP/TAZ; patient sample IPF-4): 68.54 % of total cells
- αSMA intensity (% of DMSO control) IPF-1 (αSMA; patient sample IPF-1): 84.61 % of DMSO control
- αSMA intensity (% of DMSO control) IPF-2 (αSMA; patient sample IPF-2): 67.1295 % of DMSO control
- αSMA intensity (% of DMSO control) IPF-3 (αSMA; patient sample IPF-3): 85.41 % of DMSO control
- αSMA intensity (% of DMSO control) IPF-4 (αSMA; patient sample IPF-4): 95.1307 % of DMSO control
